# From the supplement of paper PMC12889115
# Some of the results follow. Values are raw readings; no control value is given beside them.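 Primary screen: polymyxin B was added at a level permeabilizing Salmonella outer membranes while sparing inner membranes. DMSO wells, both with and without polymyxin B, established maximum growth. Plate-to-plate variation meant each plate was ranked on its own, and the lowest-OD600 compounds were selected as hits.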
# System: Salmonella enterica serovar Typhimurium SL1344
# Assay: bacterial growth OD600 after 18 h with compound and polymyxin B; higher = more bacterial growth (less inhibition)
# Conditions: 50 µM, Mueller-Hinton broth
compound,measurement,setting,value
COc1ccc(CC2(CCC(=O)N(C)C(C)c3ccon3)CCC(=O)N2)c2ccccc12 (centres undefined),bacterial growth OD600,polymyxin B 0.75 µg/mL,0.766
O=C(CCC1CCCN(Cc2cccn2-c2nccs2)C1)Nc1ccccc1F (centres undefined),bacterial growth OD600,polymyxin B 1 µg/mL,0.895
Cc1noc(C)c1CCC(=O)N1CCOC(CCCC(C)C)C1 (centres undefined),bacterial growth OD600,polymyxin B 1 µg/mL,0.922
CSCCN1C(=O)CCC1CCNCCOc1ccc(F)cc1 (centres undefined),bacterial growth OD600,polymyxin B 0.75 µg/mL,0.897
O=C(C[n+]1cc([O-])on1)N1CCCC(CCc2cccc(F)c2)C1 (centres undefined),bacterial growth OD600,polymyxin B 0.75 µg/mL,0.597
C[C@@H]1CN(C2(C(=O)NCc3cn4ccccc4n3)Cc3ccccc3C2)C[C@H](C)O1,bacterial growth OD600,polymyxin B 0.75 µg/mL,0.788
COCC(=O)N1CCC(Oc2ccc(C(=O)NC(C)c3csc(C)n3)cc2)CC1 (centres undefined),bacterial growth OD600,polymyxin B 1 µg/mL,0.912
CCn1ccnc1CN(C)C(=O)c1cc(OC)ccc1OC1CCN(C2CCCC2)CC1,bacterial growth OD600,polymyxin B 1 µg/mL,1.25
Cc1ccccc1N1CCN(C2CCCN(C(=O)C3CCCC3)C2)CC1 (centres undefined),bacterial growth OD600,polymyxin B 1 µg/mL,0.806
O=C(C1CCN(c2nc(-c3ccccc3)nc3c2CCC3)CC1)N1CCCC1,bacterial growth OD600,polymyxin B 1 µg/mL,0.589
CCc1ccc(CN(C)C(=O)c2cccc(-n3cc(NC(=O)Cc4cccc(C)c4)cn3)c2)nc1,bacterial growth OD600,polymyxin B 0.75 µg/mL,0.713
CC1(C)Cc2cc(CNCC3(O)CCCN(CC4CCC4)C3=O)ccc2O1 (centres undefined),bacterial growth OD600,polymyxin B 0.75 µg/mL,0.942
COCC(C)NC(=O)c1ccc(OC2CCN(C3CCCC3)CC2)c(OC)c1 (centres undefined),bacterial growth OD600,polymyxin B 1 µg/mL,0.967
O=C(NCC(F)(F)F)c1cc(COc2ccc(F)c(F)c2)on1,bacterial growth OD600,polymyxin B 1 µg/mL,0.638
CC(=O)Nc1cc(C(=O)NCC2CCCN(C(C)C)C2)cc2ncn(CCc3ccccn3)c12 (centres undefined),bacterial growth OD600,polymyxin B 0.75 µg/mL,0.836
Cc1cc(C(=O)N2CCC(C3CCN(c4ncccn4)CC3)C2)n(C)n1 (centres undefined),bacterial growth OD600,polymyxin B 0.75 µg/mL,0.792
COCCN(Cc1cccc2cnccc12)CC1CCCN(C2Cc3ccccc3C2)C1 (centres undefined),bacterial growth OD600,polymyxin B 0.75 µg/mL,0.702
Cc1cc(-c2cc(F)cc3c2OC(CNC(=O)c2ccoc2)C3)ccc1F (centres undefined),bacterial growth OD600,polymyxin B 0.75 µg/mL,0
COc1ccc(CC2(CCC(=O)NCCc3ccccc3Cl)CCC(=O)N2)c2ccccc12 (centres undefined),bacterial growth OD600,polymyxin B 0.75 µg/mL,0.695

# Structural class: those above with fluorine
compound,measurement,setting,value
O=C(CCC1CCCN(Cc2cccn2-c2nccs2)C1)Nc1ccccc1F (centres undefined),bacterial growth OD600,polymyxin B 1 µg/mL,0.895
CSCCN1C(=O)CCC1CCNCCOc1ccc(F)cc1 (centres undefined),bacterial growth OD600,polymyxin B 0.75 µg/mL,0.897
O=C(C[n+]1cc([O-])on1)N1CCCC(CCc2cccc(F)c2)C1 (centres undefined),bacterial growth OD600,polymyxin B 0.75 µg/mL,0.597
O=C(NCC(F)(F)F)c1cc(COc2ccc(F)c(F)c2)on1,bacterial growth OD600,polymyxin B 1 µg/mL,0.638
Cc1cc(-c2cc(F)cc3c2OC(CNC(=O)c2ccoc2)C3)ccc1F (centres undefined),bacterial growth OD600,polymyxin B 0.75 µg/mL,0
